Legend:
[1] = test system: γ-globulin fraction (GGF); assay: Fluorescence quenching of GGF by peptides L1–3; assay type: binding
Method: Fluorescence spectroscopy was carried out to characterize the mechanism of the interaction between three plasma proteins, BSA, AAG, and GGF, with the studied peptides. The fluorescence spectra of protein were collected during titration of L1–L3. The excitation wavelength was set at λ = 280 nm (both Trp and Tyr residues were excited).
To confirm this, the fluorescence data were further analyzed by the Stern–Volmer Equation (1) after correction due to the infer filter effect (2):(1) F0/F=1+kqτ[Q]=1+KSV (2) Fcorr=Fobs10^(Aex+Aem)/2 where F0 and F are the fluorescence intensities (after correction) of the protein and protein in the presence of L1–3, respectively, kq is the quenching rate constant, τ0 the average lifetime, [Q] is the L1–3 concentration, Ksv is the Stern–Volmer constant, and Fcorr, and Fobs are the corrected and observed fluorescence intensities, respectively. Aex and Aem are the absorbance values at excitation and emission wavelengths, respectively. A linear regression fit was used to calculate the value of the Stern–Volmer constant (Ksv). Then, assuming the average lifetime of the fluorophore in the excited state for a biomolecule as 10^−8 s, the quenching rate constant (kq) was computed. For dynamic quenching, the maximum scatters collision quenching rate constant for different quenchers with the biopolymers was reported to be 2 × 10^10 dm^3mol^−1s^−1 [55, 56]. […] Collisional quenching occurs when the excited-state fluorophore is deactivated by contact with some other molecule in solution (by collisions). […] This is a dynamic mechanism of quenching. The quenching constant characterizes the quenching mechanism. The maximum value for collisional quenching is 2 × 10^10 dm^3mol^−1s^−1. […] For further confirmation, measurements were made at, in addition to 297 K, temperatures 303 and 308 K. Experimental data points were fitted and analyzed using Equation (1).
Both for the complexes with BSA and with GGF, the binding constant (Kb) and the binding stoichiometry (n) were calculated. […] The values of Kb and n were calculated from the slope and the intercept of the log [(F0 − F)/F] versus log [Q] plot (Figure 2).
The forces involved in the interaction can be identified by measurement at different temperatures and then by thermodynamic analysis. The signs of the thermodynamic parameters identify the type of interactions. The enthalpy change (ΔH°), the entropic change (ΔS°), and the free energy change (ΔG°) were calculated from Equations (4) and (5):(4) […]=−ΔH^°/RT+ΔS^°/R (5) ΔG^°=ΔH^°−TΔS^°=−RTlnKb where Kb is the binding constant and R is the universal gas constant. To determine the thermodynamic parameters, the van’t Hoff plot was first conducted, i.e., the temperature dependence of the binding constant, according to Equation (4). The Kb values at the three temperatures were fitted by the linear regression method. The values of ΔH and ΔS were calculated from the slope and intercept at the fitted line. Next, the free energy change (ΔG°) was obtained from Equation (5).

GGF [2] = assay: ATR-FTIR Amide I deconvolution, secondary structure of GGF with peptide; details: for Random Coil of GGF / β-Anti of GGF / β-Sheet of GGF / β-Turn of GGF / α-Helix of GGF: ATR-FTIR Amide I
GGF [3] = assay: CD spectroscopy, secondary structure of GGF with peptide
[4] = van't Hoff plot of Kb at 297, 303, 308 K
[5] = GGF:peptide 1:0.25, pH 7.4 phosphate buffer
[6] = GGF:peptide 1:0.5, pH 7.4 phosphate buffer
[7] = GGF:peptide 1:0.75, pH 7.4 phosphate buffer
[8] = GGF:peptide 1:1, pH 7.4 phosphate buffer
[9] = GGF:peptide 1:1.5, pH 7.4 phosphate buffer

In the case of “Lys-Dab-Dab-Gly-Orn-Pro-His-Lys-Arg-Lys-Dbt [L1]”, the “number of binding sites n” value ([1]; 297 K) is reported as 1.06 ± 0.02, the “number of binding sites n” value ([1]; 303 K) is reported as 1.03 ± 0.06 and the “number of binding sites n” value ([1]; 308 K) is reported as 0.97 ± 0.04. The “ΔG°” value ([1]; from ΔH° − TΔS°) was −29 ± 1 kJmol^−1, the “ΔH°” value [1, 4] was −94 ± 2 kJmol^−1 and the “ΔS°” value [1, 4] was −220 ± 7 Jmol^−1K^−1. The “Random Coil of GGF” value (GGF [2]; GGF/peptide 1:0.5) was 39.82%, the “β-Anti of GGF” value (GGF [2]; GGF/peptide 1:0.5) was 3.85% and the “β-Sheet of GGF” value (GGF [2]; GGF/peptide 1:0.5) was 34.54%. The “β-Turn of GGF” value (GGF [2]; GGF/peptide 1:0.5) was 10.12%, the “α-Helix of GGF” value (GGF [2]; GGF/peptide 1:0.5, GGF 6.5 × 10^−4 M, room temperature) was 11.67% and the “Random Coil of GGF” value (GGF [2]; GGF/peptide 1:1.0) was 39.71%. For the same substance, the “α-Helix of GGF” value (GGF [2]; GGF/peptide 1:1.0) was 9.41%, the “β-Anti of GGF” value (GGF [2]; GGF/peptide 1:1.0) was 4.13% and the “β-Sheet of GGF” value (GGF [2]; GGF/peptide 1:1.0) was 35.36%. For the same substance, the “β-Turn of GGF” value (GGF [2]; GGF/peptide 1:1.0) was 11.38%, the “Random Coil of GGF” value (GGF [2]; GGF/peptide 1:1.5) was 40.67% and the “α-Helix of GGF” value (GGF [2]; GGF/peptide 1:1.5) was 9.37%. For the same substance, the “β-Anti of GGF” value (GGF [2]; GGF/peptide 1:1.5) was 4.12%, the “β-Sheet of GGF” value (GGF [2]; GGF/peptide 1:1.5) was 35.72% and the “β-Turn of GGF” value (GGF [2]; GGF/peptide 1:1.5) was 10.12%. For the same substance, the “differences in the secondary structure of GGF” value (GGF [2]; ATR-FTIR, after peptide addition) was 22.98%, the “fall of α-helix of GGF” value (GGF [2]; ATR-FTIR, versus free GGF) was “about 4%” and the “rise of random coil of GGF” value (GGF [2]; ATR-FTIR, versus free GGF) was ~ 22.9%. The “% Other of GGF” value (GGF [3]; [5]) was 40.9%, the “% β-Sheet of GGF” value (GGF [3]; [5]) was 38.0% and the “% β-Turn of GGF” value (GGF [3]; [5]) was 13.2%. The “% α-Helix of GGF” value (GGF [3]; GGF:peptide 1:0.25, pH 7.4 phosphate buffer, room temperature, GGF 1 µM) was 7.9%, the “% Other of GGF” value (GGF [3]; [6]) was 40.9% and the “% α-Helix of GGF” value (GGF [3]; [6]) was 7.9%. The “% β-Sheet of GGF” value (GGF [3]; [6]) was 38.0%, the “% β-Turn of GGF” value (GGF [3]; [6]) was 13.2% and the “% Other of GGF” value (GGF [3]; [7]) was 41.3%. The “% α-Helix of GGF” value (GGF [3]; [7]) was 7.6%, the “% β-Sheet of GGF” value (GGF [3]; [7]) was 37.8% and the “% β-Turn of GGF” value (GGF [3]; [7]) was 13.3%. For the same substance, the “% Other of GGF” value (GGF [3]; [8]) was 41.4%, the “% α-Helix of GGF” value (GGF [3]; [8]) was 7.4% and the “% β-Sheet of GGF” value (GGF [3]; [8]) was 37.9%. For the same substance, the “% β-Turn of GGF” value (GGF [3]; [8]) was 13.3%, the “% Other of GGF” value (GGF [3]; [9]) was 41.5% and the “% α-Helix of GGF” value (GGF [3]; [9]) was 7.5%. The “% β-Sheet of GGF” value (GGF [3]; [9]) was 37.7% and the “% β-Turn of GGF” value (GGF [3]; [9]) was 13.3%.

— publication PMC9918186, “Interaction of Positively Charged Oligopeptides with Blood Plasma Proteins” (International Journal of Molecular Sciences, 2023)
